This note sets out measurements from PMC8741891.

Protein sequences, listed by entry. Tags and fused reporters are not part of them. Residues count along the entry.
UniProt P07237, 18-508: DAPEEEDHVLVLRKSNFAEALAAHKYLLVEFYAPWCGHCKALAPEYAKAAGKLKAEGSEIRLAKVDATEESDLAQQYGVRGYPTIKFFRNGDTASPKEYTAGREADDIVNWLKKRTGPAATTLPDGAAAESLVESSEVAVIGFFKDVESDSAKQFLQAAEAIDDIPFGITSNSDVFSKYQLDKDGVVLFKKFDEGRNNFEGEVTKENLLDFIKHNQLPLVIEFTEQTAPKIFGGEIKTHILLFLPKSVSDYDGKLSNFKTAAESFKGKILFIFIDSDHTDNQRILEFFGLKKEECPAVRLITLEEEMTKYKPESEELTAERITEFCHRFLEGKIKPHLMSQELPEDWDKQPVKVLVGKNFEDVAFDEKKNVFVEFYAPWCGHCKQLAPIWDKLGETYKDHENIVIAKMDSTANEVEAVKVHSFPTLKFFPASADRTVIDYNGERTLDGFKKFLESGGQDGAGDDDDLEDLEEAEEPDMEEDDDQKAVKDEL

Results are given in words; binding and its absence hold for the method and conditions named. Some results given as binding are weak or reduced against the parent protein; the word gives no strength.

For the assay, the target named is Cholera toxin holotoxin, nicked and reduced (UniProt P01555). Nature of the assay: SPR; […] (10 ug/mL) […] ([…], […]; 10 mM MES pH 7.4, 200 mM NaCl; […]; both purified. On the technique in general: In SPR one partner is held on a chip, and binding of the other changes the refractive index at the surface.

Turning to “protein disulfide isomerase, reduced (from UniProt P07237 18-508) (enzyme)”, the binding result is recorded as “binds”.
